This note sets out measurements from publication PMC8448752.

Protein sequences, listed by entry. Tags and fused reporters are not part of them.
UniProt P08318: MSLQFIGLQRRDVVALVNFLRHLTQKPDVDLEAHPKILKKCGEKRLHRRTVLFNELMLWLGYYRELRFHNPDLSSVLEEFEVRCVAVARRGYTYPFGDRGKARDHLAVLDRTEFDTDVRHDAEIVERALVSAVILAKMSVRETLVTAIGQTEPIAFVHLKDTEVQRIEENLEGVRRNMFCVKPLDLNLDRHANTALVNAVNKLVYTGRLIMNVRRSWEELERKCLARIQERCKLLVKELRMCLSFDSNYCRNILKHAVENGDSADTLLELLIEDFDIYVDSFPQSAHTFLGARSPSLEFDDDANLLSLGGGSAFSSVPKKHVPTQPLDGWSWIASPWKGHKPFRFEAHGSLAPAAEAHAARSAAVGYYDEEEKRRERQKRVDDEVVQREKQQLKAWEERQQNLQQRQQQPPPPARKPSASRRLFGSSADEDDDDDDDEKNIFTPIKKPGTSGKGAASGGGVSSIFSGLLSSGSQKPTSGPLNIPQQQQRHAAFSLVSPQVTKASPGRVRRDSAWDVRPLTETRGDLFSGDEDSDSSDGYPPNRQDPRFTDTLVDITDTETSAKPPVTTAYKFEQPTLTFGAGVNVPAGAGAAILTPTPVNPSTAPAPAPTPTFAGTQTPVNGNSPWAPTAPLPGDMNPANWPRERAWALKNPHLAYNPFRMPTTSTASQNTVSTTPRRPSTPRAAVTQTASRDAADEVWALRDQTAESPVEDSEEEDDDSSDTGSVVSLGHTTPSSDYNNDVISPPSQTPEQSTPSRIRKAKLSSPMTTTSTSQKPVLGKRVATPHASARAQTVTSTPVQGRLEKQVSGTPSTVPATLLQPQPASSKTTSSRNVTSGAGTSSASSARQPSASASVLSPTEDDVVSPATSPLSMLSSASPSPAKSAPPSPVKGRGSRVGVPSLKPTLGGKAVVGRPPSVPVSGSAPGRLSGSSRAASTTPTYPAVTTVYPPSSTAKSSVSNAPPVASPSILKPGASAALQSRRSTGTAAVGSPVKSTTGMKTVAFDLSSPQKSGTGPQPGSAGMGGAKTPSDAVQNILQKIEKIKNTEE

No constants are given. Whether binding was seen depends on the method and setting. Some results given as binding are weak or reduced against the parent protein; the word gives no strength.

The assay addresses capsid-associated tegument protein pp150 (human cytomegalovirus (AD169 strain)) (UniProt P08318). Briefly: cryo-EM structure.

Turning to “capsid-associated tegument protein pp150 (from UniProt P08318 1-1048)”, the binding result was “binds”.
